Results taken from publication PMC12120770.
Results are given in words; binding and its absence hold for the method and conditions named. Some binding calls cover weakened binding; strength is not graded here.

Assays:
[1] = target: T1, SoBfr2 expressed in S. oneidensis Δbfr12 (Shewanella oneidensis) (UniProt Q8EHV1); experiment: native gel or EMSA + other: negative-stain TEM; SoBfr1, SoBfr2 and PaBfrB co-expressed in S. oneidensis Δbfr12 grown in irMS, MS or ilMS; 6% native PAGE with iron staining; TEM of the SoBfr12/PaBfrB particles
T1 sequence: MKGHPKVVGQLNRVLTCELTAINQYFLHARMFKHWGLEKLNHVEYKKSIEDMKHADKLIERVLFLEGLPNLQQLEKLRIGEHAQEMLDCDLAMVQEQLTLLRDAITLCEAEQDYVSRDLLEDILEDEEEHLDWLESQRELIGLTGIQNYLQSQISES

[2] = target: T2, SoBfr1 expressed in S. oneidensis Δbfr12 (Shewanella oneidensis) (UniProt Q8EHV0); experiment: as above
T2 sequence: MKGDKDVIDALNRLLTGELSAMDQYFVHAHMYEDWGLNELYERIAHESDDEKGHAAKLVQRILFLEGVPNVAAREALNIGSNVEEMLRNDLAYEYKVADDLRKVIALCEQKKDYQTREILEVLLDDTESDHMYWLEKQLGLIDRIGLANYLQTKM

Substance: PaBfrB co-expressed with SoBfr1 and SoBfr2 in S. oneidensis Δbfr12 (from UniProt Q9HY79 1-158)
- binding [1]: binds
- binding [2]: binds
